Data on 37 molecules can be found in the supplement of paper PMC4635364.

Structures can show the parent of a compound that is named as a salt. The list shows a part of the results. This data set is noisy: repeats of one test often differ as much as different tests do.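 Human fetal ventral-midbrain neural progenitor line ReNCell VM, differentiated without mitogens. Images stained for doublecortin (early neurons) or tyrosine hydroxylase (dopaminergic neurons) were scored by blinded raters against untreated wells (0 = no change). Repeats and both raters were averaged, and compounds averaging 2 or higher were picked as hits for retesting.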

The first test deals with ReNCell VM. Description: neuronal differentiation score (DCX+ cell fraction vs untreated, manual image score) (score (-3 to 3)); higher = more neuronal differentiation. The following applies: library: LOPAC; 2 uM; 2 weeks.
In the case of `Nc1ccn([C@@H]2O[C@H](CO)[C@@H](O)[C@@H]2O)c(=O)n1` [Cytosine-1-beta-D-arabinofuranoside hydrochloride], the neuronal differentiation score was inactive: 0.

For `Cc1ccc(OCC(O)C(C)NC(C)C)c2c1CCC2` (stereo not drawn) [ICI 118,551 hydrochloride], the neuronal differentiation score was inactive: 0.

`NC(N)=NC(N)=Nc1cccc(Cl)c1` [1-(m-Chlorophenyl)-biguanide hydrochloride]: the neuronal differentiation score was inactive: 0.

Turning to `NC(N)=NC(=O)c1nc(Cl)c(N2CCCCCC2)nc1N` [5-(N,N-hexamethylene)amiloride], the neuronal differentiation score was inactive: 0.

As to `NC1CONC1=O` (racemic) [DL-Cycloserine], the neuronal differentiation score is inactive: 0.

As for `O=C1CN(/N=C/c2ccc(-c3ccc([N+](=O)[O-])cc3)o2)C(=O)N1` [Dantrolene sodium], the neuronal differentiation score is inactive: 0.

The test is the same for the next values; noted with them: library: Prestwick; 2 uM; 2 weeks.
`CC(=O)Oc1ccccc1C(=O)Oc1ccccc1C(=O)O` [Acetylsalicylsalicylic acid]: the neuronal differentiation score was inactive: 0.

For `CC(=O)N(CC(O)CN(C(C)=O)c1c(I)c(C(=O)NCC(O)CO)c(I)c(C(=O)NCC(O)CO)c1I)c1c(I)c(C(=O)NCC(O)CO)c(I)c(C(=O)NCC(O)CO)c1I` (stereo not drawn) [Iodixanol], the neuronal differentiation score was inactive: 0.

Take `CC(C)[C@H](N)C(=O)OCCOCn1cnc2c(=O)nc(N)[nH]c21` [Valacyclovir hydrochloride]: the neuronal differentiation score was inactive: 0.

For `N[C@@H](C(=O)N[C@@H]1C(=O)N2C(C(=O)O)=C(Cl)CC[C@H]12)c1ccccc1` [Loracarbef], the neuronal differentiation score is inactive: 0.

In the case of `CC(C)(O)c1ccccc1CC[C@@H](SCC1(CC(=O)O)CC1)c1cccc(/C=C/c2ccc3ccc(Cl)cc3n2)c1` [Montelukast], the neuronal differentiation score was inactive: 0.

Take `CC(C(=O)O)c1ccc(C(=O)c2cccs2)cc1` (stereo not drawn) [Suprofen]: the neuronal differentiation score was inactive: 0.

Take `COc1ccccc1OCC(O)CN1CCN(CC(=O)Nc2c(C)cccc2C)CC1` (stereo not drawn) [Ranolazine]: the neuronal differentiation score is inactive: 0.

Consider `COc1cc(NC(C)CCCN)c2ncccc2c1` (stereo not drawn) [Primaquine diphosphate], for which the neuronal differentiation score is inactive: 0.

Staying with this test, now noted: library: Spectrum; 2 uM; 2 weeks.
On to `CC(O)Cn1cnc2c1c(=O)n(C)c(=O)n2C` (stereo not drawn), for which the neuronal differentiation score is inactive: 0.

For `COC(=O)[C@H]1[C@H]2C[C@@H]3c4[nH]c5cc(OC)ccc5c4CCN3C[C@H]2C[C@@H](OC(=O)c2cc(OC)c(OC)c(OC)c2)[C@@H]1OC`, the neuronal differentiation score was inactive: 0.

In the case of `O=C(O)c1ccccc1Nc1ccccc1`, the neuronal differentiation score was inactive: 0.

Take `CC(=O)O[C@H]1CC[C@]2(C)C3=C(CC[C@H]2C1(C)C)[C@]1(C)CC[C@H]([C@H](C)CCC=C(C)C)[C@@]1(C)CC3`: the neuronal differentiation score was inactive: 0.

As to `CN1C(C)(C)CCCC1(C)C`, the neuronal differentiation score was inactive: 0.

Turning to `O=C(O)c1ccccc1OP(=O)(O)O`, the neuronal differentiation score is inactive: 0.

For `C[C@@H]1CN(c2c(F)c(N)c3c(=O)c(C(=O)O)cn(C4CC4)c3c2F)C[C@H](C)N1`, the neuronal differentiation score was inactive: 0.

Regarding `CC(O)(CC(=O)O)CC(=O)O`, the neuronal differentiation score was inactive: 0.

Take `O=C(OCc1ccccc1)c1ccccc1`: the neuronal differentiation score is inactive: 0.

Consider `CCCCOc1cc(C(=O)OCCN(CC)CC)ccc1N`, for which the neuronal differentiation score is inactive: 0.

For the molecule `O=c1ccc2cc(O)c(O)cc2o1`, the neuronal differentiation score is inactive: 0.

Turning to `C#C[C@]1(O)CC[C@H]2[C@@H]3[C@H](C)CC4=C(CCC(=O)C4)[C@H]3CC[C@@]21C`, the neuronal differentiation score is inactive: 0.

Take `CCN(CC)CCOC(=O)C(c1ccccc1)c1ccccc1`: the neuronal differentiation score is inactive: 0.

As to `Nc1nc(O)c2ncn(CCC(CO)CO)c2n1`, the neuronal differentiation score was inactive: 0.

`CCCCCCCCCCCCCCCC(=O)OC[C@@H](NC(=O)C(Cl)Cl)[C@H](O)c1ccc([N+](=O)[O-])cc1`: the neuronal differentiation score was inactive: 0.

For the molecule `COc1cc2ncnc(Nc3ccc(F)c(Cl)c3)c2cc1OCCCN1CCOCC1`, the neuronal differentiation score was inactive: 0.

Consider `NCC(=O)CCC(=O)O`, for which the neuronal differentiation score is inactive: -1.

With `NC(=O)c1ccc([N+](=O)[O-])cc1Cl`, the neuronal differentiation score is inactive: 0.

With `O=Cc1ccccc1O[C@@H]1O[C@H](CO)[C@@H](O)[C@H](O)[C@H]1O`, the neuronal differentiation score was inactive: 0.

Turning to `OCC(S)CS` (stereo not drawn), the neuronal differentiation score was inactive: 0.

Staying with this test, now noted: library: Tocriscreen; 2 uM; 2 weeks.
Turning to `O=c1cc(N2CCOCC2)oc2c1ccc1ccccc12`, the neuronal differentiation score is inactive: 0.

Consider `CN(CCOc1ccc(-c2ccc3c(c2)OCO3)cc1C(C)(C)C)CC(=O)O`, for which the neuronal differentiation score was inactive: 0.

Take `COC(=O)c1c(-c2cc(OC)c(OC)c(OC)c2)c2ccnc(OCc3ncccn3)c2c(=O)n1Cc1ccnc(C)c1` [T 0156 hydrochloride]: the neuronal differentiation score is inactive: 0.

In another test the test system is ReNCell VM. The test can be described thus: dopaminergic neuron differentiation score (TH+ cell fraction vs untreated, manual image score) (score (0 to 3)); higher = more TH+ dopaminergic neuron differentiation. The following applies: library: LOPAC; 2 uM; 4 weeks; BDNF 10 ng/ml + GDNF 10 ng/ml.
`Nc1ccn([C@@H]2O[C@H](CO)[C@@H](O)[C@@H]2O)c(=O)n1` [Cytosine-1-beta-D-arabinofuranoside hydrochloride]: the “dopaminergic neuron differentiation score” value is inactive: 0.

Consider `Cc1ccc(OCC(O)C(C)NC(C)C)c2c1CCC2` (stereo not drawn) [ICI 118,551 hydrochloride], for which the “dopaminergic neuron differentiation score” value was active: 2.

Turning to `NC(N)=NC(N)=Nc1cccc(Cl)c1` [1-(m-Chlorophenyl)-biguanide hydrochloride], the “dopaminergic neuron differentiation score” value was inactive: 0.

For the molecule `NC(N)=NC(=O)c1nc(Cl)c(N2CCCCCC2)nc1N` [5-(N,N-hexamethylene)amiloride], the “dopaminergic neuron differentiation score” value was inactive: 0.

For `NC1CONC1=O` (racemic) [DL-Cycloserine], the “dopaminergic neuron differentiation score” value is inactive: 0.

As for `O=C1CN(/N=C/c2ccc(-c3ccc([N+](=O)[O-])cc3)o2)C(=O)N1` [Dantrolene sodium], the “dopaminergic neuron differentiation score” value was inactive: 0.
